According to paper PMC5158136:
Results are given in words; binding and its absence hold for the method and conditions named. Binding seen in cells or lysates may run through a third protein.

Protein sequences, listed by entry. Tags and fused reporters are not part of them.
UniProt Q9VHS8: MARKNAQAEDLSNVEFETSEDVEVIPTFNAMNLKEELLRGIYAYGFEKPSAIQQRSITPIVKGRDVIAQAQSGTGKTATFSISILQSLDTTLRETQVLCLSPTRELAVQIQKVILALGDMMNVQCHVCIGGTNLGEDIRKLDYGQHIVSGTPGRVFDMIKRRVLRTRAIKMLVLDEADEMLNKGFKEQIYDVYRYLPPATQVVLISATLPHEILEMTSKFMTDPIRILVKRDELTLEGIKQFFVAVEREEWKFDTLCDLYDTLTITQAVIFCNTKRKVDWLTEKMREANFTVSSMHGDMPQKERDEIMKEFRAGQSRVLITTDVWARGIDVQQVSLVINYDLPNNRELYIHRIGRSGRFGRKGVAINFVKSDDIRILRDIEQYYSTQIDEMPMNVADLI
UniProt Q9V535: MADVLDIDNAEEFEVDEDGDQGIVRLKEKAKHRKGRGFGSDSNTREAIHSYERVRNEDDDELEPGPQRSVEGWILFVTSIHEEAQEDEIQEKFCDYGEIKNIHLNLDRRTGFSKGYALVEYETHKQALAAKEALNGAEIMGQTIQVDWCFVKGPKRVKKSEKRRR

Molecular target: eIF4AIII (Drosophila melanogaster (endogenous in S2 cells)) (UniProt Q9VHS8)
Assay: co-sedimentation; 10–50% sucrose gradient (polysome profiling) of S2 cell cytoplasmic extracts, 38,000 rpm 160 min 4°C; fractions assayed by Western blotting

binding: no binding
Substance: Y14 (from UniProt Q9V535 1-165)
